According to publication PMC9321043, “Synthesis, Structure–Activity Relationships, and Parasitological Profiling of Brussonol Derivatives as New Plasmodium falciparum Inhibitors” (Pharmaceuticals, 2022):

Columns and labels:
[1] = tested on: P. falciparum (3D7 strain); experiment: In vitro antiplasmodial activity, P. falciparum blood-stage parasites, SYBR Green I; type: cell-based, Plasmodium falciparum; settings: RI = IC50^resistant strain/IC50^3D7
Protocol: The P. falciparum strains were cultivated in human blood cells (hRBC) O^+, while P. knowlesi was cultivated in rhesus red blood cells (rRBC) as described. P. falciparum complete RPMI (consisting of RPMI-1640, supplemented with 0.2% NaHCO3, 25 mM HEPES (pH 7.4), 11 mM D-glucose, 10 mg/L hypoxanthine, 25 mg/L gentamicin, and 0.5% (m/v) AlbuMAX II). The parasitemias of these cultures were maintained below 10% with 2.5% hematocrit. P. knowlesi complete RPMI (consisting of RPMI-1640 supplemented with 25 mM HEPES, […] hypoxanthine, 0.26% NaHCO3, 10 mg/L gentamicin, and 1% Albumax II). This culture was maintained with RBCs up to 5% hematocrit. The culture medium was changed daily, and all cultures were maintained under a 90% N2/5% CO2/5% O2 gas mixture at 37 °C. All compounds were purchased from Sigma-Aldrich (Cotia, Brazil).
The antiplasmodial activity of brussonol and derivatives was evaluated against P. falciparum blood parasites 3D7(chloroquine-sensitive). The parasites were synchronized through sterile 5% (m/v) D-sorbitol treatment over 10 min at 37 °C for the enrichment of ring stages. Centrifugation 600× g over 5 min was used to pellet the cultures. The parasitemia was determined by microscope analysis of thin blood smears stained with Giemsa 10% (v/v) after fixation with methanol. The initial parasitemia was calculated for 1000 red blood cells (RBCs), and cultures were diluted to 0.5% parasitemia and 2% hematocrit by the addition of the appropriate volumes of blood and medium. A total of 180 µL aliquots of parasites were distributed into 96-well plates followed by the addition of 20 µL of previously prepared aliquots of ten-fold concentrated compounds, the range of concentrations tested was 10–1.53 µM. Negative and positive control wells, which correspond to non-parasitized erythrocytes and parasite cultures in the absence of compounds, were set in parallel. […] Once completed incubation, the culture medium was removed, and the cells were resuspended in 100 µL PBS (116 mM NaCl, 10 mM NaH2PO4, 3 mM KH2PO4) and lysed with 100 µL lysis buffer (20 mM Tris base, 5 mM EDTA, 0.0008% (v/v) Triton X-100, 0.008% (m/v) saponin, pH 8.0) containing 0.002% (v/v) SYBR Green I. Plates were incubated for 30 min at room temperature, and a SpectraMAX Gemini EM plate reader (Molecular Devices Corp., Sunnyvale, CA) was used to determine the fluorescence corresponding to parasitic density (excitation at 485 nm, emission at 535 nm). The half-maximal inhibitory concentration (IC50^Pf) was determined by non-linear regression analysis of the resulting concentration–response curve using the software GraphPad Prism version 8.0.1 for Windows, GraphPad Software, San Diego, California USA, www.graphpad.com, accessed on 3 March 2022”.

[2] = tested on: P. falciparum 3D7^r_MMV848 strain; experiment: Resistance assessment, 3D7r-MMV848 strain; type: cell-based, Plasmodium falciparum
P. falciparum Dd2 strain = experiment: Resistance assessment, Dd2 strain; type: cell-based, Plasmodium falciparum
P. falciparum K1 strain = experiment: Resistance assessment, K1 strain; type: cell-based, Plasmodium falciparum
[3] = tested on: P. falciparum TM90C6B strain; experiment: Resistance assessment, TM90C6B strain; type: cell-based, Plasmodium falciparum
HepG2 cells = experiment: Cytotoxic test on immortalized cells, MTT; type: cell-based, human; settings: SI = IC50^HepG2/IC50^Pf
Protocol: The cytotoxic effects of brussonol and derivatives were evaluated against the human hepatocellular carcinoma cell line (HepG2). The cells were cultivated in an RPMI medium supplemented with 10% (v/v) fetal bovine serum and 25 µg/mL gentamicin. Conditions for the cultivation of these cells were 37 °C and 5% CO2, and every 2 days the supplemented medium was changed.
For experimental procedures, the cells were trypsinized and transferred to a 96-well plate at 30,000 cells per well (180 µL). The plate was incubated at 37 °C and 5% CO2 to allow cell adhesion. Next, 20 µL of serial dilutions of the compounds tested were added to the plate, with a range of concentrations tested from 400–6.25 µM. Cells without any compounds were used as a positive control for growing and the wells containing only medium were used as negative controls. The plate was incubated for 72 h at 37 °C and 5% CO2. After incubation, a microscope was used to determine the highest compound concentration to be used in the experiments (highest concentration without precipitation). […] The absorbance, which is proportional to the number of viable cells, was determined using a SpectraMAX Plus 384 plate reader (Molecular Devices Corp., Sunnyvale, CA) (λ = 570 nm). […]
After the IC50 against the parasite and the human cell line is determined, it is possible to calculate the SI. It is calculated as the formula below:SI = IC50^HepG2/IC50^Pf. […]

[4] = RI = IC50^resistant strain/IC50^3D7
[5] = RI = IC50^resistant strain/IC50^3D7, listed as Brussonol
[6] = RI = IC50^resistant strain/IC50^3D7, listed as brussonol

Row | SMILES | RI [1] | RI [2, 4] | RI (P. falciparum Dd2 strain; [4]) | RI (P. falciparum K1 strain; [4]) | RI [3, 4] | RI [2, 5] | RI [2, 6] | RI (P. falciparum Dd2 strain; [5]) | RI (P. falciparum Dd2 strain; [6]) | RI (P. falciparum K1 strain; [5]) | RI (P. falciparum K1 strain; [6]) | RI [3, 5] | RI [3, 6] | SI (HepG2 cells)
1 | C[C@H]1[C@H](OC(=O)CCC(=O)O)O[C@@H]2O[C@@]3(C)CC[C@H]4[C@H](C)CC[C@@H]1[C@@]24OO3 [artesunate] | 1 | 2 | 1 | 1 | 1 | – | – | – | – | – | – | – | – | –
2 | O=C1C(O)=C([C@H]2CC[C@H](c3ccc(Cl)cc3)CC2)C(=O)c2ccccc21 [atovaquone, reference compound] | 1 | – | – | – | 4285 | – | – | – | – | – | – | – | – | –
3 | CC(C)c1cc2c(c(O)c1O)C[C@@]13CCCC(C)(C)[C@@H]1C[C@@H]2O3 [Compound 1, brussonol] | 1 | – | – | – | – | < 5 | 1 | < 5 | 0.5 | < 5 | 0.5 | < 5 | 0.5 | 4
4 | CCc1nc(N)nc(N)c1-c1ccc(Cl)cc1 [pyrimethamine] | 1 | – | >166 | >166 | – | – | – | – | – | – | – | – | – | –
